Experimental data: PMC11111408, “Concurrent inhibition of oncogenic and wild-type RAS-GTP for cancer therapy” (Nature, 2024)
“And” between values parts separate entries of the source, which are not always exact repeats. Identical values can stand only once. This continues a long series; more values of the same kind are listed elsewhere.

Columns and labels:
[1] = test system: Pa16C cells expressing MEK1 mutants; test: Proliferation (Calcein AM) of Pa16C cells expressing MEK1 mutants; format: cell-based, human
KRAS–PI3Kα [2] = target: T1, KRAS–PI3Kα (Homo sapiens, UniProt P01116, G12V); test: Cellular nano-BRET, full length PI3Kα binding to KRAS G12C, G12D, G12V; format: cell-based; conditions: KRAS G12V, in the presence of CYPA, single replicates;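 also: U2OS cells expressing KRAS4B mutants carrying N-terminal nanoluciferase or HaloTag fusions, with nano-BRET signal measured after inhibitor exposure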
T1 construct: expressed in transfected cells; host or cells: U2OS

KRAS–PI3Kα [3] = target: T2, KRAS–PI3Kα (Homo sapiens, UniProt P01116, G12D); test: as above; format: cell-based; conditions: KRAS G12D, in the presence of CYPA, single replicates
T2 construct: expressed in transfected cells; host or cells: U2OS

KRAS–PI3Kα [4] = target: T3, KRAS–PI3Kα (Homo sapiens, UniProt P01116, G12C); test: as above; format: cell-based; conditions: KRAS G12C, in the presence of CYPA, single replicates
T3 construct: expressed in transfected cells; host or cells: U2OS

[5] = test system: NCI-H358 and MIA PaCa-2 cells expressing RTK constructs; test: pERK (MSD) in NCI-H358 and MIA PaCa-2 cells expressing exogenous RTK or RTK fusion constructs; format: cell-based, human; conditions: for pERK in NCI-H358 RTK overexpression cells treated with RMC-7977 / pERK inhibition in H358 RTK overexpression cells: EGFR WT

SMILES: CCn1c(-c2cc(N3CCN(C4CC4)CC3)cnc2[C@H](C)OC)c2c3cc(ccc31)-c1csc(n1)C[C@H](NC(=O)[C@H]1[C@@H]3COC[C@@H]31)C(=O)N1CCC[C@H](N1)C(=O)OCC(C)(C)C2 [RMC-7977]
- Proliferation of Pa16C cells expressing MEK1 mutant constructs ([1]; MEK1E102-I103del, inhibitor 0.412 nM): 94.6 and 115.9 and 118 and 82.6
- Proliferation of Pa16C cells expressing MEK1 mutant constructs ([1]; MEK1E102-I103del, inhibitor 1.235 nM): 94 and 103.5 and 106.3 and 72.6
- Proliferation of Pa16C cells expressing MEK1 mutant constructs ([1]; MEK1E102-I103del, inhibitor 3.704 nM): 79.1 and 94 and 93.1 and 76.1
- Proliferation of Pa16C cells expressing MEK1 mutant constructs ([1]; MEK1K57N, inhibitor 0.412 nM): 134.1 and 126 and 117.2
- Proliferation of Pa16C cells expressing MEK1 mutant constructs ([1]; MEK1K57N, inhibitor 1.235 nM): 130.2 and 118.4 and 133.7
- Proliferation of Pa16C cells expressing MEK1 mutant constructs ([1]; MEK1K57N, inhibitor 3.704 nM): 125.4 and 109.9 and 125.8
- Proliferation of Pa16C cells expressing MEK1 mutant constructs ([1]; MEK1Q56P, inhibitor 0.412 nM): 113.3 and 136.9 and 112.7
- Proliferation of Pa16C cells expressing MEK1 mutant constructs ([1]; MEK1Q56P, inhibitor 1.235 nM): 130.1 and 140.3 and 102.1
- Proliferation of Pa16C cells expressing MEK1 mutant constructs ([1]; MEK1Q56P, inhibitor 3.704 nM): 113.4 and 119.2 and 96.2
- Proliferation of Pa16C cells expressing MEK1 mutant constructs ([1]; MEK1S218D/S222D, inhibitor 0.412 nM): 91.4 and 111.2 and 117.2 and 103
- Proliferation of Pa16C cells expressing MEK1 mutant constructs ([1]; MEK1S218D/S222D, inhibitor 1.235 nM): 88.3 and 101.3 and 116.1 and 96.7
- Proliferation of Pa16C cells expressing MEK1 mutant constructs ([1]; MEK1S218D/S222D, inhibitor 3.704 nM): 85.4 and 96.5 and 106.8 and 90.7
- Proliferation of Pa16C cells expressing MEK1 mutant constructs ([1]; MEK1WT, inhibitor 0.412 nM): 87.3 and 112.6 and 114.4 and 79.8
- Proliferation of Pa16C cells expressing MEK1 mutant constructs ([1]; MEK1WT, inhibitor 1.235 nM): 76.7 and 87.1 and 95.9 and 72.1
- Proliferation of Pa16C cells expressing MEK1 mutant constructs ([1]; MEK1WT, inhibitor 3.704 nM): 61.6 and 45.4 and 62.6 and 40.9
- Cellular nano-BRET of PI3K⍺ (full-length) binding to KRAS (KRAS–PI3Kα [2]; RMC-7977 0.152 nM): 20.8472 and 20.406 and 20.3368 and 20.1509 and 20.8103 and 21.278
- Cellular nano-BRET of PI3K⍺ (full-length) binding to KRAS (KRAS–PI3Kα [2]; RMC-7977 0.457 nM): 20.6534 and 20.4767 and 20.4367 and 20.7173 and 21.2619 and 20.8705
- Cellular nano-BRET of PI3K⍺ (full-length) binding to KRAS (KRAS–PI3Kα [2]; RMC-7977 1.372 nM): 20.6357 and 19.8073 and 19.6092 and 19.5884 and 20.4216 and 20.3031
- Cellular nano-BRET of PI3K⍺ (full-length) binding to KRAS (KRAS–PI3Kα [2]; RMC-7977 4.115 nM): 20.2933 and 19.1064
- Cellular nano-BRET of PI3K⍺ (full-length) binding to KRAS (KRAS–PI3Kα [3]; RMC-7977 0.152 nM): 18.7935 and 19.141 and 18.6344 and 19.075 and 18.2865 and 19.6937
- Cellular nano-BRET of PI3K⍺ (full-length) binding to KRAS (KRAS–PI3Kα [3]; RMC-7977 0.457 nM): 18.3787 and 18.7426 and 18.6086 and 19.0177 and 18.2477 and 18.3552
- Cellular nano-BRET of PI3K⍺ (full-length) binding to KRAS (KRAS–PI3Kα [3]; RMC-7977 1.372 nM): 18.3594 and 18.951 and 17.6925 and 18.4282 and 17.7403 and 18.3144
- Cellular nano-BRET of PI3K⍺ (full-length) binding to KRAS (KRAS–PI3Kα [3]; RMC-7977 4.115 nM): 17.3789 and 18.0793 and 17.1572 and 17.557 and 16.6798 and 17.8081
- Cellular nano-BRET of PI3K⍺ (full-length) binding to KRAS (KRAS–PI3Kα [4]; RMC-7977 0.152 nM): 20.3249 and 20.9149 and 20.1392 and 20.4963 and 20.2853 and 19.9497
- Cellular nano-BRET of PI3K⍺ (full-length) binding to KRAS (KRAS–PI3Kα [4]; RMC-7977 0.457 nM): 20.3196 and 20.1783 and 20.205 and 20.0798 and 20.1662 and 19.981
- Cellular nano-BRET of PI3K⍺ (full-length) binding to KRAS (KRAS–PI3Kα [4]; RMC-7977 1.372 nM): 20.0254 and 19.8203 and 20.0432 and 19.4426 and 18.9791 and 19.3338
- pERK inhibition in MiaPaCa2 RTK fusion overexpression cells treated with RMC-7977 ([5]; CCDC6-RET, RMC-7977 0.005 nM): 111.11 and 104.43 and 106.29 and 92.46 and 93.37 and 97.79 and 104.42 and 92.27
- pERK inhibition in MiaPaCa2 RTK fusion overexpression cells treated with RMC-7977 ([5]; CCDC6-RET, RMC-7977 0.046 nM): 88.97 and 89.50 and 83.43 and 87.85 and 81.22
- pERK inhibition in MiaPaCa2 RTK fusion overexpression cells treated with RMC-7977 ([5]; CCDC6-RET, RMC-7977 0.412 nM): 37.57 and 45.86 and 52.49 and 40.33
- pERK inhibition in MiaPaCa2 RTK fusion overexpression cells treated with RMC-7977 ([5]; CCDC6-RET, RMC-7977 1.235 nM): 22.10 and 25.41 and 28.18
- pERK inhibition in MiaPaCa2 RTK fusion overexpression cells treated with RMC-7977 ([5]; CCDC6-RET, RMC-7977 3.704 nM): 9.94 and 11.60
- pERK inhibition in MiaPaCa2 RTK fusion overexpression cells treated with RMC-7977 ([5]; CCDC6-RET, RMC-7977 11.111 nM): 4.42 and 3.87
- pERK inhibition in MiaPaCa2 RTK fusion overexpression cells treated with RMC-7977 ([5]; CCDC6-RET, RMC-7977 33.333 nM): 2.21 and 3.31
- pERK inhibition in MiaPaCa2 RTK fusion overexpression cells treated with RMC-7977 ([5]; CCDC6-RET, RMC-7977 100.000 nM): 2.76 and 2.21
- pERK in NCI-H358 RTK overexpression cells treated with RMC-7977 ([5]; RMC-7977 0.0152 nM): 96.63 and 98.01
- pERK in NCI-H358 RTK overexpression cells treated with RMC-7977 ([5]; RMC-7977 0.0457 nM): 79.32 and 82.05
- pERK in NCI-H358 RTK overexpression cells treated with RMC-7977 ([5]; RMC-7977 0.41 nM): 62.12 and 59.20
- pERK in NCI-H358 RTK overexpression cells treated with RMC-7977 ([5]; RMC-7977 3.70 nM): 11.13 and 15.38
- pERK inhibition in H358 RTK overexpression cells ([5]; RMC-7977 3.70 nM): 10.83 and 11.93
- pERK in NCI-H358 RTK overexpression cells treated with RMC-7977 ([5]; RMC-7977 11.11 nM): 4.70 and 5.04
- pERK inhibition in H358 RTK overexpression cells ([5]; RMC-7977 11.11 nM): 4.87 and 4.16
- pERK inhibition in H358 RTK overexpression cells ([5]; RMC-7977 33.33 nM): 2.17 and 2.50
- pERK inhibition in H358 RTK overexpression cells ([5]; RMC-7977 100.00 nM): 1.94 and 1.86
- pERK inhibition in H358 RTK overexpression cells ([5]; RMC-7977 300.00 nM): 1.74 and 1.98
- pERK inhibition in MiaPaCa2 RTK fusion overexpression cells treated with RMC-7977 ([5]; EML4-ALK, RMC-7977 0.005 nM): 105.36 and 99.34 and 117.19 and 106.81 and 102.93 and 113.16
- pERK inhibition in MiaPaCa2 RTK fusion overexpression cells treated with RMC-7977 ([5]; EML4-ALK, RMC-7977 0.046 nM): 98.67 and 115.57 and 132.99 and 94.07 and 99.52 and 121.84
- pERK inhibition in MiaPaCa2 RTK fusion overexpression cells treated with RMC-7977 ([5]; EML4-ALK, RMC-7977 0.412 nM): 45.27 and 53.66 and 55.28
- pERK inhibition in MiaPaCa2 RTK fusion overexpression cells treated with RMC-7977 ([5]; EML4-ALK, RMC-7977 1.235 nM): 24.23 and 23.04 and 28.24
- pERK inhibition in MiaPaCa2 RTK fusion overexpression cells treated with RMC-7977 ([5]; EML4-ALK, RMC-7977 3.704 nM): 10.36 and 9.78 and 10.79
- pERK inhibition in MiaPaCa2 RTK fusion overexpression cells treated with RMC-7977 ([5]; EML4-ALK, RMC-7977 11.111 nM): 5.45 and 3.97 and 3.87
